Results published in article doi:10.1101/2023.03.28.534377.

By UniProt entry, the sequences of proteins in these tests, tags left out. Where a name states a change or a piece, a line headed by the entry shows the natural chain unless it says otherwise.
UniProt A0QSV9: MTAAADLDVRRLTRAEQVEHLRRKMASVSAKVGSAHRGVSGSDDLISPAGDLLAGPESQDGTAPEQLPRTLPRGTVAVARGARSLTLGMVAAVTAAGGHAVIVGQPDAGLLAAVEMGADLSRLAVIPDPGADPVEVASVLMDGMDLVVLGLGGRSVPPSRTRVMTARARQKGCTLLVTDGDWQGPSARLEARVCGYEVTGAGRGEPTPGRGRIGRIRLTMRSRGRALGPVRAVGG
UniProt A0QSW0: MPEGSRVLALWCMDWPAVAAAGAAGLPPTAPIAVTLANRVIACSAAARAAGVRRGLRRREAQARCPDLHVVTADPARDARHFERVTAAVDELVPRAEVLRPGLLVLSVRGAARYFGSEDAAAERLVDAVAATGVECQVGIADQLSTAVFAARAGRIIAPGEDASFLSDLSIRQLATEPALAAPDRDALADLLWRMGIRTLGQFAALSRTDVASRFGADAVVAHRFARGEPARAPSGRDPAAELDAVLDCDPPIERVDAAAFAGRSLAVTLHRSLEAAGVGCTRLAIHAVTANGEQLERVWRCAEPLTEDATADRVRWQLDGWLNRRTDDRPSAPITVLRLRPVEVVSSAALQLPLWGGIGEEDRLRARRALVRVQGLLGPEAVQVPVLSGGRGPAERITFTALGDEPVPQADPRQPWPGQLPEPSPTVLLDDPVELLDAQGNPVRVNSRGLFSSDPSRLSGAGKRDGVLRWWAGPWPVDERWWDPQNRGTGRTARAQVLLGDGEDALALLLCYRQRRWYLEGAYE

Assays:
[1] = molecular target: Strep-tagged ImuA’ (M. smegmatis) (M. smegmatis) (UniProt A0QSV9); assay: pull-down
[2] = molecular target: His-tagged ImuB, wild type (M. smegmatis) (M. smegmatis) (UniProt A0QSW0); assay: pull-down
[3] = molecular target: His-tagged ImuB, wild type (M. smegmatis) (M. smegmatis) (UniProt A0QSW0); assay: SEC

Substance | binding [1] | binding [2] | binding [3]
His-tagged ImuB, wild type (M. smegmatis) (from UniProt A0QSW0) | binds |  | 
Strep-tagged ImuA’ (M. smegmatis) (from UniProt A0QSV9) |  | binds | binds

Results are given in words; binding and its absence hold for the method and conditions named. Binding can be weak; no strength is given. For part of these data: Binding seen in cells or lysates may run through a third protein.
